PubChem BioAssay AID256 (DTP/NCI, 2004)
The list is a part of this screen's results and no random one: it gathers tests that were run many times, whatever their T/C, doses with no T/C, and many T/C values between a quarter and a half above the control. Other doses and runs of a compound stand elsewhere. T/C gives the treated animals as a percentage of the vehicle group. Some doses have a count of surviving animals in place of a T/C: the source holds a T/C of zero for them, seemingly a mark for toxic or unscored doses. Some survivor counts are full or nearly so, which does not show that the dose was tolerated: survival well below the control is almost never listed, so the zero probably covers shortened survival too. Survivors were counted at the toxicity check, usually on the fifth day, unless a day is given; later deaths do not show. Schedule codes are those of the source, read here as Q, the interval in days (D) or hours (H), X, the number of doses. Some entries hold several experiments; their values stand side by side, smallest first. Where survival is the endpoint, this PubChem deposit counts one and a half times the control or more as active, and values a quarter to a half above the control carry no call in these data; other NCI protocols may use other cut-offs. Brackets with × stand for listed records that agree. Some T/C values are followed by the survivors on the day toxicity was checked, most often the fifth; without a count, all were alive then.

Test system: CD2F1 mice, L1210 leukemia ip, survival T/C
Assay: NCI In Vivo Anticancer Drug Screen. Data for tumor model L1210 Leukemia (intraperitoneal) in CD2F1 (CDF1) mice
Conditions: T/C endpoint: mean survival time, higher T/C = longer survival
How it was run: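 Ratio T/C, where T is the treated-group value and C the vehicle-dosed control value, from mice implanted with a transplantable tumor.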

[1] = dose: 200.0 mg/kg/injection, schedule: Q01DX009 (oral), vehicle: saline
[2] = dose: 400.0 mg/kg/injection, schedule: Q04DX003 (ip), vehicle: saline
[3] = dose: 400.0 mg/kg/injection, schedule: Q01DX009 (ip), vehicle: saline with Tween-80

For `C=CCNC(=O)NCC=C`, which T/C (dose: 3.13 mg/kg/injection, schedule: Q01DX009 (oral), vehicle: saline) is on record?
Its T/C is 106, 108, 111 (2×), 114, 117 % of control.

And the T/C (dose: 6.25 mg/kg/injection, schedule: Q01DX009 (ip), vehicle: saline, evaluated on day 30)?
Its T/C is 104, 108, 114 % of control.

And the T/C (dose: 6.25 mg/kg/injection, schedule: Q01DX009 (ip), vehicle: saline, evaluated on day 60)?
Its T/C is 106 % of control.

And the T/C (dose: 6.25 mg/kg/injection, schedule: Q01DX009 (oral), vehicle: saline, evaluated on day 30)?
Its T/C is 108, 113 [5 of 6 alive], 115 (2×), 120, 125 % of control.

What about the T/C (dose: 6.25 mg/kg/injection, schedule: Q01DX009 (oral), vehicle: saline, evaluated on day 60) of the same compound?
The T/C was 104 % of control.

And the T/C (dose: 12.5 mg/kg/injection, schedule: Q01DX009 (ip), vehicle: saline, evaluated on day 30)?
The T/C was 118 % of control (3×).

And the T/C (dose: 12.5 mg/kg/injection, schedule: Q01DX009 (ip), vehicle: saline, evaluated on day 60)?
Its T/C is 101 % of control.

And the T/C (dose: 12.5 mg/kg/injection, schedule: Q01DX009 (oral), vehicle: saline, evaluated on day 30)?
Its T/C is 125, 126, 127, 128, 132, 138 % of control.

What about the T/C (dose: 12.5 mg/kg/injection, schedule: Q01DX009 (oral), vehicle: saline, evaluated on day 60) of the same compound?
Its T/C is 127 % of control.

What about the T/C (dose: 25.0 mg/kg/injection, schedule: Q01DX006 (ip), vehicle: saline) of the same compound?
Its T/C is 142 % of control.

And the T/C (dose: 25.0 mg/kg/injection, schedule: Q01DX009 (ip), vehicle: saline, evaluated on day 30)?
The T/C was 107, 118, 120 (2×), 134 % of control.

And the T/C (dose: 25.0 mg/kg/injection, schedule: Q01DX009 (ip), vehicle: saline, evaluated on day 60)?
Its T/C is 101 % of control.

And the T/C (dose: 25.0 mg/kg/injection, schedule: Q01DX009 (oral), vehicle: saline, evaluated on day 30)?
Its T/C is 144, 151, 155, 156, 159 % of control (2×).

And the T/C (dose: 25.0 mg/kg/injection, schedule: Q01DX009 (oral), vehicle: saline, evaluated on day 60)?
Its T/C is 142 % of control.

And the T/C (dose: 50.0 mg/kg/injection, schedule: Q01DX006 (ip), vehicle: saline)?
The T/C was 144 % of control.

What about the T/C (dose: 50.0 mg/kg/injection, schedule: Q01DX009 (ip), vehicle: saline, evaluated on day 30) of the same compound?
Its T/C is 115, 127, 130, 134 % of control (2×).

What about the T/C (dose: 50.0 mg/kg/injection, schedule: Q01DX009 (ip), vehicle: saline, evaluated on day 60) of the same compound?
Its T/C is 107 % of control.

And the T/C (dose: 50.0 mg/kg/injection, schedule: Q01DX009 (oral), vehicle: saline, evaluated on day 30)?
The T/C was 118, 146, 148, 177, 181 % of control (2×).

What about the T/C (dose: 50.0 mg/kg/injection, schedule: Q01DX009 (oral), vehicle: saline, evaluated on day 60) of the same compound?
Its T/C is 136 % of control.

What about the T/C (dose: 100.0 mg/kg/injection, schedule: Q01DX001 (oral), vehicle: saline) of the same compound?
Its T/C is 127 % of control.

What about the T/C (dose: 100.0 mg/kg/injection, schedule: Q01DX007 (ip), vehicle: saline) of the same compound?
Its T/C is 144 % of control.

And the T/C (dose: 100.0 mg/kg/injection, schedule: Q01DX009 (ip), vehicle: saline, evaluated on day 30)?
Its T/C is 122, 123, 134, 136 (2×), 138 % of control.

What about the T/C (dose: 100.0 mg/kg/injection, schedule: Q01DX009 (ip), vehicle: saline, evaluated on day 60) of the same compound?
Its T/C is 119 % of control.

What about the T/C (dose: 100.0 mg/kg/injection, schedule: Q01DX009 (oral), vehicle: saline, evaluated on day 30) of the same compound?
The T/C was 118, 119, 121, 132, 160 % of control.

What about the T/C (dose: 100.0 mg/kg/injection, schedule: Q01DX009 (oral), vehicle: saline, evaluated on day 60) of the same compound?
Its T/C is 98 % of control [4 of 6 alive].

What about the survivor count (dose: 100.0 mg/kg/injection, schedule: Q01DX009 (oral), vehicle: saline) of the same compound?
Its survivor count is 2 of 6.

What about the T/C (dose: 200.0 mg/kg/injection, schedule: Q01DX001 (oral), vehicle: saline) of the same compound?
Its T/C is 125 % of control.

And the T/C (dose: 200.0 mg/kg/injection, schedule: Q01DX005 (ip), vehicle: saline)?
The T/C was 125 % of control.

And the T/C (dose: 200.0 mg/kg/injection, schedule: Q01DX007 (ip), vehicle: saline)?
The T/C was 142 % of control.

And the T/C (dose: 200.0 mg/kg/injection, schedule: Q01DX009 (ip), vehicle: saline, evaluated on day 30)?
The T/C was 114, 119, 129 [5 of 6 alive], 138 (2×), 144 % of control.

What about the T/C (dose: 200.0 mg/kg/injection, schedule: Q01DX009 (ip), vehicle: saline, evaluated on day 60) of the same compound?
Its T/C is 136 % of control.

And the T/C [1]?
The T/C was 88, 93, 96 [4 of 6 alive], 102, 116, 132 % of control.

What about the survivor count [1] of the same compound?
The survivor count was 3 of 6.

And the T/C (dose: 200.0 mg/kg/injection, schedule: Q03DX003 (ip), vehicle: saline)?
The T/C was 126 % of control.

And the T/C (dose: 400.0 mg/kg/injection, schedule: Q01DX001 (oral), vehicle: saline)?
The T/C was 138 % of control.

What about the T/C (dose: 400.0 mg/kg/injection, schedule: Q01DX005 (ip), vehicle: saline) of the same compound?
Its T/C is 129 % of control.

What about the survivor count (dose: 400.0 mg/kg/injection, schedule: Q01DX007 (ip), vehicle: saline) of the same compound?
The survivor count was 3 of 6.

What about the survivor count (dose: 400.0 mg/kg/injection, schedule: Q01DX009 (ip), vehicle: saline) of the same compound?
The survivor count was 0 of 6 and 1 of 6.

What about the survivor count (dose: 400.0 mg/kg/injection, schedule: Q01DX009 (oral), vehicle: saline) of the same compound?
The survivor count was 0 of 6.

What about the survivor count (dose: 400.0 mg/kg/injection, schedule: Q03DX003 (ip), vehicle: saline) of the same compound?
Its survivor count is 3 of 6.

And the survivor count [2]?
The survivor count was 1 of 6.

What about the survivor count (dose: 800.0 mg/kg/injection, schedule: Q01DX001 (oral), vehicle: saline) of the same compound?
The survivor count was 1 of 6.

What about the survivor count (dose: 800.0 mg/kg/injection, schedule: Q01DX005 (ip), vehicle: saline) of the same compound?
The survivor count was 0 of 6.

And the survivor count (dose: 800.0 mg/kg/injection, schedule: Q02DX005 (ip), vehicle: saline)?
Its survivor count is 0 of 6.

What about the survivor count (dose: 800.0 mg/kg/injection, schedule: Q04DX003 (ip), vehicle: saline) of the same compound?
The survivor count was 0 of 6.

Which survivor count (dose: 200.0 mg/kg/injection, schedule: Q04DX002 (ip), vehicle: saline) does the source give for `CCCCCCC(O)C/C=C\CCCCCCCC(=O)O` (stereo not drawn) here?
Its survivor count is 0 of 3.

How did the survivor count [3] turn out when `C=CCNC(=O)OCC` was run?
Its survivor count is 4 of 6.

What does the source list for `CS(=O)(=O)C(Br)(Br)S(C)(=O)=O`?
survivor count (dose: 18.75 mg/kg/injection, schedule: Q01DX001 (ip), vehicle: saline with Tween-80): 2 of 6; survivor count (dose: 75.0 mg/kg/injection, schedule: Q01DX001 (ip), vehicle: saline with Tween-80): 0 of 6; survivor count (dose: 150.0 mg/kg/injection, schedule: Q01DX001 (ip), vehicle: saline with Tween-80): 0 of 6; survivor count (dose: 300.0 mg/kg/injection, schedule: Q01DX001 (ip), vehicle: saline with Tween-80): 0 of 6

With `COc1ccccc1/C(C)=N\NC(=O)c1ccccc1` as the compound, how does the survivor count [3] read?
The survivor count was 3 of 6.

What does the source list for `O=C(/C=C/C(=O)c1ccccc1)c1ccccc1`?
survivor count (dose: 25.0 mg/kg/injection, schedule: Q01DX001 (ip), vehicle: saline with Tween-80): 3 of 3; survivor count (dose: 100.0 mg/kg/injection, schedule: Q01DX001 (ip), vehicle: saline with Tween-80): 1 of 3; survivor count (dose: 200.0 mg/kg/injection, schedule: Q01DX001 (ip), vehicle: saline with Tween-80): 0 of 3; survivor count (dose: 400.0 mg/kg/injection, schedule: Q01DX001 (ip), vehicle: saline with Tween-80): 0 of 3

With `CCN(CC)C(=O)c1cc[n+](Cc2ccc(Cl)cc2)cc1` as the compound, how does the survivor count [2] read?
Its survivor count is 0 of 6.

Which results are given for `CC(C)(C(=O)O)C(C)(C)C(=O)O`?
survivor count (dose: 6.25 mg/kg/injection, schedule: Q01DX001 (ip), vehicle: saline): 1 of 3; survivor count (dose: 12.5 mg/kg/injection, schedule: Q01DX001 (ip), vehicle: saline): 0 of 3; survivor count (dose: 25.0 mg/kg/injection, schedule: Q01DX001 (ip), vehicle: saline): 0 of 3

`CCN(Cc1cnc2nc(N)nc(N)c2n1)c1c(Cl)cc(C(=O)NC(CCC(=O)O)C(=O)O)cc1Cl` (stereo not drawn) was tested. Which T/C (dose: 12.5 mg/kg/injection, schedule: Q01DX009 (ip), vehicle: sodium bicarbonate) did it give?
Its T/C is 136 % of control.

And the T/C (dose: 25.0 mg/kg/injection, schedule: Q01DX009 (ip), vehicle: sodium bicarbonate)?
The T/C was 137 % of control.

What about the T/C (dose: 50.0 mg/kg/injection, schedule: Q01DX009 (ip), vehicle: sodium bicarbonate) of the same compound?
The T/C was 139 % of control.
